# Measurements taken from publication doi:10.1101/2020.04.12.019257.
# Protein sequences, listed by entry. Tags and fused reporters are not part of them.
# UniProt P90916: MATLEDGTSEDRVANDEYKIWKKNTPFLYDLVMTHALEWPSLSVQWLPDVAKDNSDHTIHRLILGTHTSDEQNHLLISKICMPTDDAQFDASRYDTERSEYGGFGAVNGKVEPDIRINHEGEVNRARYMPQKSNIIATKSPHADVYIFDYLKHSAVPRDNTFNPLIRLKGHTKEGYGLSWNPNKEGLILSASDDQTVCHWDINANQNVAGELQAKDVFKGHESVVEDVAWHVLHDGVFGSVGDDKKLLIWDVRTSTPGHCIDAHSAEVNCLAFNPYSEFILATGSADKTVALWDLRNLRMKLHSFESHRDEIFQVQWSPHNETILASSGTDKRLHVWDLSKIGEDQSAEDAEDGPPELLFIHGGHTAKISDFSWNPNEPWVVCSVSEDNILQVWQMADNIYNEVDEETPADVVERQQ
# How the values were obtained:
# [1] = target: RbAp46/48^LIN-53 (C. elegans) (UniProt P90916); assay: co-IP
# HAT-1 (C. elegans) = HAT-1 (C. elegans) (UniProt Q21484); assay: co-IP
binding [1],binding (HAT-1 (C. elegans)),Substance
binds,,HAT-1 (from UniProt Q21484) (enzyme)
,binds,RbAp46/48^LIN-53 (from UniProt P90916 1-417)

# Results are given in words; binding and its absence hold for the method and conditions named. In cells and extracts the contact can be indirect. Binding can be weak; no strength is given.
